These results are taken from article doi:10.1101/2025.11.06.686927.

No constants are given. Whether binding was seen depends on the method and setting. In cells and extracts the contact can be indirect. Some results given as binding are weak or reduced against the parent protein; the word gives no strength.

The target of the assay is T1, CDK8 (Xenopus egg extract) (Xenopus laevis (endogenous in egg extract)) (UniProt Q66KH9).
T1 sequence: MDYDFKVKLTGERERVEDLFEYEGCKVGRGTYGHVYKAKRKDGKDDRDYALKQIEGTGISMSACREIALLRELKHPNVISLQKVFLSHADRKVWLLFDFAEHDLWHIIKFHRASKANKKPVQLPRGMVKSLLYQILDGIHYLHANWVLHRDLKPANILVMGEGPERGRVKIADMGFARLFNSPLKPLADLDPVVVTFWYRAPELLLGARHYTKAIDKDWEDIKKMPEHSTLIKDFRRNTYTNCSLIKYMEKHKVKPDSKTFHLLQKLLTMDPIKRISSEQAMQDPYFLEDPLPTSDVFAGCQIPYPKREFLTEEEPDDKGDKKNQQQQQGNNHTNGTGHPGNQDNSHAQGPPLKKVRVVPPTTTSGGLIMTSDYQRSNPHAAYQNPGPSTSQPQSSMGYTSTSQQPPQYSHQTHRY
Kind of assay: co-IP.

B1: Cyclin C (Xenopus egg extract) (protein, UniProt Q4KLA0 1-283)
chain: MAGNFWQSSHYLQWILDKQDLLKERQKDLKFLSEEEYWKLQIFFTNVIQALGEHLKLRQQVIATATVYFKRFYARYSLKSIDPVLMAPTCVFLASKVEEFGVVSNTRLISAATSVLKTRFSYAFPKEFPYRMNHILECEFYLLELMDCCLIVYHPYRPLLQYVQDMGQEDMLLPLAWRIVNDTYRTDLCLLYPPFMIALACLHVACVVQQKDARQWFAELSVDMEKILEIIRVILKLYEQWKNFDERKEMASILSKMPKPKPPPNSDGEQGTNGSQSSGYSQS
Take B1: the binding result is given as “binds”.
